Measured values: patent US9732071B2, “Compounds useful as modulators of TRPM8” (Senomyx, Inc., priority 2015, dated 2017)

Test system: panelists
Assay: Quantitative descriptive sensory evaluation by ten trained panelists (15-point linescale)
Type: in vivo, human
Design: key to Numbing, Duncan's (5%) level / Total Burning, Duncan's (5%) level / Tingling, Duncan's (5%) level / Total Trigeminal Impact, Duncan's (5%) level / Icy Cool In Mouth (after expectoration to 60 minutes), Duncan's (5%) level / Icy Cool In Mouth and Immediately After Expectoration, Duncan's (5%) level / Cooling Breath In (after expectoration to 60 minutes), Duncan's (5%) level: the Duncan's levels are reported as Levels A, B, and C; the Duncan's levels are reported as Levels A, B, and C; the Duncan's levels are reported as Levels A, B, and C
[1] = 3 μM solution, 15-point linescale
[2] = 3 μM solution, after expectoration to 60 minutes
[3] = 5 μM solution, after expectoration to 60 minutes

`Cc1ccc(OCC(=O)N(Cc2cccs2)c2ccn[nH]2)cc1` [Comparative Compound 1, reference compound] was tested, and the “Cooling Breath In (after expectoration to 60 minutes), Duncan's (5%) level” value (3 μM solution) was “B”, the “Icy Cool In Mouth (after expectoration to 60 minutes), Duncan's (5%) level” value (3 μM solution) was “B” and the “Average Bitterness at 2 Minutes After Expectoration, Bitterness Rating” value [1] was 1.10. For the same compound, the “Average Numbing (after expectoration to 60 minutes)” value [1] was 1.5, the “Average Tingling (after expectoration to 60 minutes)” value [1] was 0.7 and the “Average Total Burning (after expectoration to 60 minutes)” value [1] was 1.1. For the same compound, the “Average Total Trigeminal Impact (after expectoration to 60 minutes)” value [1] was 2.8, the “Numbing, Duncan's (5%) level” value [2] was “B” and the “Total Burning, Duncan's (5%) level” value [2] was “B”. The “Total Trigeminal Impact, Duncan's (5%) level” value [2] was “B”.

In the case of `O=C(COc1ccc(F)cc1)N(Cc1cccs1)c1cc[nH]n1` [Compound 102, 2-(4-flourophenoxy)-N-(1H-pyrazol-5-yl)-N-(thiophen-2-ylmethyl)acetamide], the “Tingling, Duncan's (5%) level” value [3] is reported as “A”, the “Total Burning, Duncan's (5%) level” value [3] is reported as “A” and the “Total Trigeminal Impact, Duncan's (5%) level” value [3] is reported as “A”.

In the case of `COc1ccc(OCC(=O)N(Cc2cccs2)c2cc[nH]n2)cc1` [Compound 103, 2-(4-methoxyphenoxy)-N-(1H-pyrazol-3-yl)-N-(thiophen-2-ylmethyl)acetamide], the “Numbing, Duncan's (5%) level” value [3] is reported as “A”, the “Total Burning, Duncan's (5%) level” value [3] is reported as “A” and the “Total Trigeminal Impact, Duncan's (5%) level” value [3] is reported as “A”.

With `CCc1ccc(OCC(=O)N(Cc2cccs2)c2cc[nH]n2)cc1` [Compound 104, 2-(4-ethylphenoxy)-N-(1H-pyrazol-3-yl)-N-(thiophen-2-ylmethyl)acetamide] the “Cooling Breath In (after expectoration to 60 minutes), Duncan's (5%) level” value (3 μM solution) was “C”, the “Icy Cool In Mouth (after expectoration to 60 minutes), Duncan's (5%) level” value (3 μM solution) was “C” and the “Icy Cool In Mouth and Immediately After Expectoration, Duncan's (5%) level” value (3 μM solution) was “B”.

With `Cc1ccc(OCC(=O)N(Cc2cccs2)c2cc[nH]n2)cc1C` [Compound 105, 2-(3,4-dimethylphenoxy)-N-(1H-pyrazol-3-yl)-N-(thiophen-2-ylmethyl)acetamide] the “Cooling Breath In (after expectoration to 60 minutes), Duncan's (5%) level” value (5 μM solution) was “C” and the “Icy Cool In Mouth (after expectoration to 60 minutes), Duncan's (5%) level” value (5 μM solution) was “C”.
